Measurements taken from patent publication US20200362018A1.

Target: 20S proteasome (source not stated for the experiment)
Test: native MS with MS/MS of the isolated 20S proteasome peaks

binding: binds
B1: human NQO2 (recombinant, His-TEV fragment removed) (enzyme, UniProt P16083 1-231, looked up)
chain: MAGKKVLIVYAHQEPKSFNGSLKNVAVDELSRQGCTVTVSDLYAMNLEPRATDKDITGTLSNPEVFNYGVETHEAYKQRSLASDITDEQKKVREADLVIFQFPLYWFSVPAILKGWMDRVLCQGFAFDIPGFYDSGLLQGKLALLSVTTGGTAEMYTKTGVNGDSRYFLWPLQHGTLHFCGFKVLAPQISFAPEIASEEERKGMVAAWSQRLQTIWKEEPIPCTAHWHFGQ

No constants are given. Whether binding was seen depends on the method and setting. Binding can be weak; no strength is given. Sequences can lack the tags named with a protein.
